Results of single-concentration screens

Values are the deposited “Percent Effect”, in %. The controls that fix the scale are not given in the record; negative values are as filed. Compounds were drawn at random from those tested, without regard to their results.

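Whole-parasite assay of Trypanosoma brucei over 72 hours; the read-out is not stated. Compounds at 30 µM. The record gives no direction; compounds that gave an IC50 in retests scored well above the rest, so higher reads as stronger inhibition. Values scatter widely below zero; nearly all retest evidence comes from the higher of the two concentrations used. Of about 64,000 compounds tested this way, about 940 (1.5%) reached 50% or more in at least one test.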

compound,Percent Effect
Cc1nc(CN2CCOC(c3nc(C(C)C)n[nH]3)C2)oc1C (centres unmarked),-8.721
COc1ccccc1N1CCN(C(=O)Cn2nccc2C)CC1(C)C,-13.83
CC(=O)N1CCCN(C(C)c2ccc(Br)cc2)CC1 (centres unmarked),-15.67
C[C@@H]1CC[C@@H](C)N1C(=O)c1cc(COc2ccccc2)[nH]n1,-6.165
Cc1ccccc1OCC(=O)N1CCOC2(CNCCOC2)C1 (centres unmarked),-8.899
CC(=O)c1cc(C(=O)NC2(c3ccccc3)CCC2)n(C)c1,-63.32
O=C(O)C(F)(F)F.O=C(O)C(F)(F)F.[H][C@@]12CN(Cc3ccncc3)CCC[C@]1(C(=O)O)CN(c1ncccn1)C2,-0.6688
Cc1ccc(C#N)c(N2CCC3(CCCN(C4CCOCC4)C3=O)C2)n1 (centres unmarked),-24.04
Cn1nc(C2CCN(C(=O)c3cnccn3)C2)cc1CCO (centres unmarked),5.605
COCC1CCCN(CCCc2cccc(OC)c2)C1 (centres unmarked),-14.99
COc1ccnc(N2CCCN(Cc3ncc(C(C)C)o3)CC2)n1,-61.64
CC(NC(=O)N1CCN(c2nccs2)CC1)c1nncn1C (centres unmarked),10.69
COCC1CN(C(=O)Cc2ccccn2)Cc2c1cnn2CC1CC1.O=C(O)C(F)(F)F.O=C(O)C(F)(F)F (centres unmarked),-11.18
CCc1nnsc1C(=O)NC1CCN(CCOc2ccc(Br)cc2)CC1,50.82
[H][C@@]12CN(Cc3cccnc3)CCO[C@]1([H])CN(C(=O)c1ccncn1)C2,34.74
CN(C(=O)C1CCC1)C1CCN(c2ccccc2Cl)C1=O (centres unmarked),-13.29
O=C(O)C(F)(F)F.O=C(O)C(F)(F)F.c1cncc(-c2ccc3c(c2)CCC32CCN(Cc3nccs3)CC2)c1,13.64
CCOCC1CCN(C(=O)Nc2ccc3c(c2)CCCN3C)C1 (centres unmarked),-20.59
O=C(O)COc1ccc(Cl)cc1CN1CCC2(CCNCC2)CC1,-32.07
Nc1nc2c(c(N3CCOCC3)n1)CCN(C(=O)c1ccc[nH]1)CC2,-5.703
CC(C)N(C)Cc1nnc2n1CCN(S(=O)(=O)C1CC1)CC2.O=C(O)C(F)(F)F,-24.43
O=C(NCC1CC1)C1CN(C(=O)c2ccco2)CC12CCOCC2 (centres unmarked),-15.13
Cc1nnc([C@H]2CCN(CCCc3ccccc3)C2)o1,-38.42
Cc1ccc(C(=O)NCCCC2(C3OCCO3)CCOCC2)cc1C,-46.64
CCOc1c(F)cccc1C(=O)N(C)CCc1ccccn1,-71.35
N#CC1(c2ccccc2)CCN(C(=O)CN2C(=O)CCNC2=O)CC1,5.096
CC(C)c1nsc(N2CCS(=O)(=O)CC2)n1,-21.92
O=C(COc1cccc2c1CCC2=O)NCc1ccccc1F,25.43
COc1cccc(CN2CC3(CCNCC3)CCC2=O)c1OC,-25.98
OCCN1CCC(CNCc2ccc(Br)cc2)CC1,16.03
COc1cccc(C(=O)N2CCCC(CNS(C)(=O)=O)C2)c1 (centres unmarked),-14.85
[H][C@@]12CC[C@H](Oc3ccccc3Cl)[C@]1([H])CN(C(=O)COCCOC)C2,-6.34
CN(Cc1ccncc1)Cc1cnn(-c2ccc(F)cc2)c1,-38.94
Cc1ccsc1CN1CCC(n2cc(C(O)c3ccccc3)nn2)CC1 (centres unmarked),-15.95
Cc1cc(N2CCC(O)CC2)nc(C2CCCN2C)n1 (centres unmarked),-4.798
O=C(c1ccc(F)c(F)c1)N1CCN2CCCC2C1 (centres unmarked),-16.28
CC(C)c1nc2n(n1)CC(NCc1nc(-c3ccsc3)no1)CC2 (centres unmarked),18.67
CC(C)c1ocnc1C(=O)N1CCCC(c2ccn[nH]2)C1 (centres unmarked),-22.41
O=C(Cc1ccc(-n2cccn2)cc1)N1CCCC(n2cccn2)C1 (centres unmarked),-25.98
CCOC(=O)N1CCC(NC(=O)c2cccc(C3CCCNC3)c2)CC1 (centres unmarked),-34.07
Cc1cccc(CS(=O)(=O)c2nnc(N3CCOCC3)s2)c1,-47.29
c1ccc(-c2cc(CC3(NCc4ncc[nH]4)COC3)no2)cc1,-4.274
CC(=O)NCCc1ccc(S(=O)(=O)Nc2ccc(C)c(F)c2)s1,-10.65
[H][C@@]12C[C@@H](OC)C[C@]1([H])CN(C(=O)c1ccc(C)s1)C2,15.68
CC(C)NC(=O)NCCCOC1CCOCC1,-50.41
Cc1cc(N2CCCCC2)nc(N(CCO)CCO)c1C#N,11.55
CNC(=O)[C@@H]1C[C@@H](N)CN1c1nnc(-c2ccccc2)s1,-50.27
c1ccc(-n2cncn2)c(CNCCn2cccn2)c1,10.1
COCCN(CC1CCCN(C2Cc3ccccc3C2)C1)C(=O)COC (centres unmarked),4.635
CN(C)CCNC(=O)c1cnc2c(c1)nc(-c1ccccc1Cl)n2C,-3.597
Cc1nn(CC(C)C)c(N(C)C)c1CNCc1ccccc1CO,-0.526
COc1ncc(-c2ccc(NC(C)=O)cc2)c(OC)n1,-13.78
CC(C)N1CCC(CC(=O)NCc2cc(O)ncn2)CC1,-18.9
CC1(C(=O)N2CCSCC2)CNCCO1 (centres unmarked),-12.19
COCCO[C@@H]1CCN(C(=O)c2ccc(C)o2)[C@@H]1Cc1cnn(C)c1,24.04
CO[C@@H]1CCN(C(=O)Cc2ccsc2)[C@H]1Cc1cccnc1.O=C(O)C(F)(F)F,-12.88
O=C(Cc1ccc(S(=O)(=O)C(F)F)cc1)N1CCC1,-8.499
CCN1C(=O)CC(N(C)Cc2nc3ccccc3c(=O)[nH]2)C1=O (centres unmarked),-36.78
CSCc1cc(F)ccc1CNCc1cccc(O)c1,3.274
O=C(O)CCc1cn(C2CCN(c3ncccc3Cl)CC2)nn1,-11.34
Cc1noc(C)c1CN1CCc2ncnc(-c3ccccc3)c2CC1.O=C(O)C(F)(F)F,-55.88
COC(=O)c1cccc(C(=O)N2CCCC(n3cncn3)C2)c1 (centres unmarked),12.01
CCCc1ccc(S(=O)(=O)NC2(CC(N)=O)CCC2)cc1,-35.06
CCSc1cc(C(=O)NC(C)c2cccc(N3CCOC3=O)c2)ccn1 (centres unmarked),-98.25
O=C(NCC(O)(c1cccs1)C1CC1)NC1CCCCC1 (centres unmarked),-37.09
Cc1cc(CN2CCN(C(=O)NC(C)c3cccnc3)CC2)no1 (centres unmarked),10.47
Fc1cc(CN2CCOC3(CCOCC3)C2)ccc1Cl,-17.21
CN(C(=O)CCOc1ccccc1)C1CCN(CC2CCOC2)CC1 (centres unmarked),21.8
Cn1ccnc1CN1CCC(c2nc3ccccc3n2C)CC1,-31.82
O=C(O)C(F)(F)F.O=C(O)C(F)(F)F.[H][C@]12C[C@@H](CN3CCCC3)N(c3nccs3)[C@@]1([H])CCN(C(=O)CC)C2,3.85
[H][C@@]12CCN(C(=O)c3ccccc3)C[C@@]1([H])O[C@H](c1nnc(C3CC3)o1)C2,-6.75
Cc1cc(Nc2ccc(F)cn2)cc(C2CCN(Cc3ncc[nH]3)C2)n1 (centres unmarked),30.95
O=C(NC1CCCCC1)c1nnc2ccc(N3CCOCC3)cc2n1,-23.41
c1cncc(C[C@@H]2CC[C@H](CN3CCCOCC3)O2)c1,-19.86
NS(=O)(=O)c1ccc(C(=O)N2CCCC2c2ccccc2)o1 (centres unmarked),-19.71
Cc1ccc(S(=O)(=O)NC(=O)CCc2ccco2)cc1N(C)C,-14.93
CCn1cc(S(=O)(=O)Nc2nc3c(s2)CC(C)CC3)cn1 (centres unmarked),-39.67
Cc1ccc(C(=O)N2CCc3ncccc3C2)cc1N1CCNC1=O,-36.83
CCCn1ncnc1C(C)NC(=O)C1CCN(C(C)C)CC1 (centres unmarked),-93.75

Some entries from above, unchanged:

| compound | Percent Effect |
|---|---|
| `O=C(O)C(F)(F)F.O=C(O)C(F)(F)F.[H][C@]12C[C@@H](CN3CCCC3)N(c3nccs3)[C@@]1([H])CCN(C(=O)CC)C2` | 3.85 |
| `Cc1nn(CC(C)C)c(N(C)C)c1CNCc1ccccc1CO` | -0.526 |
| `Cc1nnc([C@H]2CCN(CCCc3ccccc3)C2)o1` | -38.42 |
| `COCCO[C@@H]1CCN(C(=O)c2ccc(C)o2)[C@@H]1Cc1cnn(C)c1` | 24.04 |

Measurements from “University of Dundee, Small-Polar-MMV Screening Library” (2021), ChEMBL document CHEMBL3988442.